Assay results as given in US20250221988A1 (Cullgen (Shanghai), Inc., priority 2022, published 2025).
The name of at least one read-out is uncertain.

Assays:
MV4;11 cells = test: Cell viability assay (CellTiter-Glo) in MV4;11 cells; format: cell-based; settings: with 10 nM gilteritinib, three days, read-out: MV4, 11 IC50 (nM) + 10 nM Gil
Protocol: (§1) Cell Culture: RS4;11, MV4;11, MOLM-13 and other cells were cultured at 37° C. with 5% CO2 in RPMI 1640 or DMEM Medium supplemented with 10% fetal bovine serum. Cells were authenticated using the short tandem repeat (STR) assays. Mycoplasma test results were negative.
(§2) Cell viability assays: Cells were seeded at a density of 5000 cells per well in 96-well assay plates and treated with test compounds following a 8-point or 12-point 3-fold serial dilution. Three days later, cell viability was determined using the CellTiter-Glo assay kit according to the manufacturer's instructions. The dose-response curves were determined and IC50 values were calculated using the GraphPad Prism software following a nonlinear regression (least squares fit) method.
The IC50 values (nM) of each compound were determined in MV4;11 and MOLM-13 cells with or without gilteritinib (10 nM for MV4;11; and 20 nM for MOML-13) as described in the Materials and Methods subsection and calculated using the GraphPad Prism 5.0 software.

MOLM-13 cells = test: Cell viability assay (CellTiter-Glo) in MOLM-13 cells; format: cell-based; settings: with gilteritinib, three days, read-out: MOLM-13 IC50 (nM) + 10 nM Gil
Protocol: as §1
as §2, with “method. […]” for “method.”

SMILES	IC50 (MV4;11 cells) [nM]	IC50 (MOLM-13 cells) [nM]
Cc1nc(-c2cn(C3CC(O)(CNc4ccc5c(c4)C(=O)N(C4CCC(=O)NC4=O)C5=O)C3)nc2C2CC2)ccc1F (stereo not drawn) [GS-760, 5-(((trans-3-(3-cyclopropyl-4-(5-fluoro-6-methylpyridin-2-yl)-1H-pyrazol-1-yl)-1-hydroxycyclobutyl)methyl)amino)-2-(2,6-dioxopiperidin-3-yl)isoindoline-1,3-dione]	> 1000	> 1000
Nc1ccnc2c1c(C1CC1)nn2[C@H]1C[C@H](CNc2ccc3c(c2)C(=O)N(C2CCC(=O)NC2=O)C3=O)C1 (stereo partly drawn) [GS-762, 5-(((Trans-3-(4-amino-3-cyclopropyl-1H-pyrazolo[3,4-b]pyridin-1-yl)cyclobutyl)methyl)amino)-2-(2,6-dioxopiperidin-3-yl)isoindoline-1,3-dione]	> 1000	> 1000
Cc1nc(-c2cn([C@H]3C[C@H](COc4ccc5c(c4)CN(C4CCC(=O)NC4=O)C5=O)C3)nc2C2CC2)ccc1F (stereo partly drawn) [GS-787, 3-(5-((Trans-3-(3-cyclopropyl-4-(5-fluoro-6-methylpyridin-2-yl)-1H-pyrazol-1-yl)cyclobutyl)methoxy)-1-oxoisoindolin-2-yl)piperidine-2,6-dione]	> 1000	> 1000
